Results from publication doi:10.1101/2021.10.25.465771.
Results are given in words; binding and its absence hold for the method and conditions named. In cells and extracts the contact can be indirect. Some entries that bind do so weakly or less than the wild type.

By UniProt entry, the sequences of proteins in these tests, tags left out.
UniProt Q13562: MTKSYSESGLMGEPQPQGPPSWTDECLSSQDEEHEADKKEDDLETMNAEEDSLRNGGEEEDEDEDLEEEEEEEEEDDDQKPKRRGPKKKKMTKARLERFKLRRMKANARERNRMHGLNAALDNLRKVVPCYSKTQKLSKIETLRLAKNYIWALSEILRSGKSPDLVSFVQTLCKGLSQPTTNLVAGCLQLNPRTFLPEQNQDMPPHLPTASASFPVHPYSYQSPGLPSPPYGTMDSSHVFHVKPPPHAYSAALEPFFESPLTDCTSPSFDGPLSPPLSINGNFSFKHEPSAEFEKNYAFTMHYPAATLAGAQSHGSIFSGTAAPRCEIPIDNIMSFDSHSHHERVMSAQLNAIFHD
UniProt P25440: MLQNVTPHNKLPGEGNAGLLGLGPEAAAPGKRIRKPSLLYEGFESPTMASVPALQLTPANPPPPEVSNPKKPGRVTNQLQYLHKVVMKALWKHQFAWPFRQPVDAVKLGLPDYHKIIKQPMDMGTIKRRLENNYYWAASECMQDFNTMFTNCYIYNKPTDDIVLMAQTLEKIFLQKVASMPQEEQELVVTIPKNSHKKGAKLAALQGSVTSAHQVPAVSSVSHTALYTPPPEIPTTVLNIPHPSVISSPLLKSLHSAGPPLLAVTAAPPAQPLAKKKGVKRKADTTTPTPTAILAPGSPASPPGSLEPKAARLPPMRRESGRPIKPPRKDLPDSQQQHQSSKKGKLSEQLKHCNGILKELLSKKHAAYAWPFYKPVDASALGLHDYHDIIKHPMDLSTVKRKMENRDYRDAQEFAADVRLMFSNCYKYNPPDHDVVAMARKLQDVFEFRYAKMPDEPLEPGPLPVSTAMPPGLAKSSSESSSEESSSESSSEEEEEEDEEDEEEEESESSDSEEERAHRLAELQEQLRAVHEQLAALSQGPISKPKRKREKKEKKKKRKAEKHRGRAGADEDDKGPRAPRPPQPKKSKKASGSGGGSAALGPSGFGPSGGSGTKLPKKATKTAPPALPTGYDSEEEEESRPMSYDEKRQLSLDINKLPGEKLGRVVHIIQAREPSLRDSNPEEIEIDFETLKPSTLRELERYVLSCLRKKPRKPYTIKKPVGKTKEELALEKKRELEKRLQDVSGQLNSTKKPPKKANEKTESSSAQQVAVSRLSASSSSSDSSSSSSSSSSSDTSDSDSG

Target: NEUROD1 (human (endogenous in H446 and H524)) (UniProt Q13562)
Assay: co-IP

- binding: binds
Substance: BRD2 (from UniProt P25440 1-801)
